# About 13,000 (3.2%) of roughly 400,000 compounds were called active. Inconclusive results, whose numbers are uncertain, are shown with a selection of clear calls. Calls follow the shape of the dose curve; as a rule, active = well fitted cell-killing curve with a large enough effect; inconclusive = small, poorly fitted or top-dose-only effect, or effect the other way; inactive = flat fitted curve, though single readings scatter. A potency beside an inconclusive call is a rough fit, not a confirmed value.
# Test: qHTS assay for MDR1-selective chemotherapeutics: Primary screen using the drug-selected MDR subline cells KB-V1; also: nearly all actives have a fitted effect of over 60% in size
# Conditions: KB-V1 MDR cells viability, CellTiter-Glo, 72 h; activity change, negative = cytotoxicity: at 46.1 µM (top of the series)
# In short: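 Cells of the MDR subline KB-V1 are plated, dosed with compound at multiple concentrations, and incubated 72 h at 37 degrees C; CellTiter-Glo is then added and luminescence read after 10 min.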
# % is scaled to controls: 0 for no effect and ±100 for the full control effect; potency is read from the fitted curve at half-maximal effect.
SMILES,Potency,"activity change, negative = cytotoxicity"
O=c1c(Oc2ccccc2)coc2cc(O)cc(O)c12,"inconclusive: 8.2 µM [rising, partial curve, poor fit]",
COc1cc(C2C3=C(COC3=O)Oc3cc4c(cc32)OCO4)cc(OC)c1OC(C)=O (stereo unspecified),active: 0.651 µM,
Cc1cnc(=O)[nH]c1SCc1cccc([N+](=O)[O-])c1,,inactive: 13.9%
CN(C)c1ccc(C(CNC(=O)c2ccccc2Cl)N2CCc3ccccc32)cc1 (stereo unspecified),,inactive: 1.32%
CC(C)CC(=O)NC(Nc1ccc([N+](=O)[O-])cc1)C(Cl)(Cl)Cl (stereo unspecified),active: 18.4 µM,
Cc1ccc(Nc2nc(N)nc(CN3CCN(Cc4ccccc4)CC3)n2)cc1Cl,"inconclusive: 5.8 µM [cytotoxic, partial curve]",
CCCCc1ccc(NC(=S)N2CCN(c3ccccn3)CC2)cc1,"inconclusive: 29.1 µM [rising, single point]",
O=C(Nc1cccnc1)c1ccc(CN2CCc3ccccc3C2)cc1,"inconclusive: 29.1 µM [cytotoxic, single point]",
Cc1ccc(NC(=O)Nc2nc3c(s2)CCCCCC3)cc1C,,inactive: -1.33%
CCOC(=O)C1CCCN(C(=O)Cc2ccc(OC)c(OC)c2)CC1 (stereo unspecified),active: 20.6 µM,
COc1cc(Cl)c(C)cc1NC(=O)c1ccccc1NC(=O)CN1CCOCC1,"inconclusive: 10.3 µM [cytotoxic, partial curve]",
COc1ccccc1Cc1c(-c2ccc(F)cc2)nc2ccc(Cl)cn12,,inactive: 9.99%
Cc1ccc(Cn2c(C(=O)O)c(CNCCc3cccs3)c3ccc(C)cc32)cc1,"inconclusive: 20.6 µM [rising, partial curve, poor fit]",
CN1C(=O)S/C(=C/c2cccnc2)C1=O,,inactive: -3.72%
CCOC(=O)c1cnn(-c2ncnc3c2oc2ccccc23)c1N,"inconclusive: 10.3 µM [cytotoxic, partial curve]",
COC(=O)c1cc(S(=O)(=O)N2CCN(c3cccc(Cl)c3)CC2)c[nH]1,,inactive: -5.5%
COc1ccc(CC(N)c2csc(Nc3nc(C)cnc3C)n2)cc1 (stereo unspecified),"inconclusive: 16.4 µM [cytotoxic, partial curve]",
CC(=O)Nc1ccccc1OCC(=O)c1cc(C)n(Cc2cccs2)c1C,"inconclusive: 1.46 µM [cytotoxic, full curve, poor fit]",
Cc1ccc(N2CC(C(=O)Nc3nnc(SCC(=O)Nc4cc(C)on4)s3)CC2=O)cc1 (stereo unspecified),,inactive: -0.823%
O=C(COc1nc2ccccc2nc1N1CCOCC1)Nc1ccc(S(=O)(=O)N2CCCC2)cc1,"inconclusive: 16.4 µM [cytotoxic, partial curve, poor fit]",
CC[C@@]1(c2cccc(C)c2)C(=O)N(C(=O)OC)N1C(=O)OC,"inconclusive: 32.6 µM [cytotoxic, single point]",
CCCCNC(=O)C1C(c2ccc(C(F)(F)F)cc2)=Nc2ccccc2N1C(=O)c1cccc(C(F)(F)F)c1 (stereo unspecified),,inactive: -2.82%
O=S1(=O)CC(N2CCCCC2)CN1Cc1cn(Cc2ccccc2)nn1 (stereo unspecified),"inconclusive: 14.6 µM [cytotoxic, partial curve]",

# Grouped by structure: the entries above with fluorine (2)
SMILES,Potency,"activity change, negative = cytotoxicity"
COc1ccccc1Cc1c(-c2ccc(F)cc2)nc2ccc(Cl)cn12,,inactive: 9.99%
CCCCNC(=O)C1C(c2ccc(C(F)(F)F)cc2)=Nc2ccccc2N1C(=O)c1cccc(C(F)(F)F)c1 (stereo unspecified),,inactive: -2.82%

# (further entries)

SMILES,Potency,"activity change, negative = cytotoxicity"
CN(C)/C=N/C(=S)Nc1ccc(Cl)c(Cl)c1,,inactive: -24.5%
CC(C)C[C@H]1CNC(=S)N1CC1CCN(CC2CCCC2)CC1,,inactive: 0%
COc1ccccc1NC(=O)c1ccc2[nH]c(C)cc(=O)c2c1,"inconclusive: 16.4 µM [rising, partial curve]",
Cc1cccc(NC(=S)NNC(=O)c2csc3c2CCC(C)C3)c1 (stereo unspecified),active: 23.1 µM,
C#CCOc1ccc(/C=N/O)cc1Cl,"inconclusive: 20.6 µM [cytotoxic, single point]",
COc1cccc(CNc2ccc([N+](=O)[O-])cc2C)c1,active: 14.6 µM,
CCOC(=O)c1c(C)[nH]c(C(=O)/C(C#N)=C/c2ccc(OC)c(OC)c2)c1C,"inconclusive: 14.6 µM [cytotoxic, partial curve, poor fit]",
Cc1cccc(NC(=O)CN2C(=O)S/C(=C\c3cc(C)n(C)c3C)C2=O)c1,"inconclusive: 8.2 µM [cytotoxic, partial curve]",
CCCC(=O)C1=C(O)C(C(=O)OC)C(C)(C)CC1=Nc1cccc([N+](=O)[O-])c1 (stereo unspecified),,inconclusive: -20%
O=C(COC(=O)c1cccc(S(=O)(=O)N2CCCCC2)c1)NCc1cccc(Cl)c1,"inconclusive: 0.058 µM [rising, full curve]",
C=CCn1c(N)c(C(=O)N2CCN(C)CC2)sc1=S,,inactive: -22.8%
COc1ccccc1S(=O)(=O)N(C)C[C@@H]1Oc2cc(C#CCC(C)C)ccc2S(=O)(=O)N([C@H](C)CO)C[C@@H]1C,,inactive: -5.17%
CCN1CC2=C(OC(N)=C(C#N)C2c2cccs2)/C(=C/c2cccs2)C1 (stereo unspecified),"inconclusive: 16.4 µM [cytotoxic, single point]",
CN(C)c1ccc(/C=C/c2ccnc3ccccc23)cc1Br,"inconclusive: 29.1 µM [cytotoxic, single point]",
Cc1ccc(NC(=S)N(CCN(C)C)C(C)c2ccco2)c(C)c1 (stereo unspecified),"inconclusive: 14.6 µM [cytotoxic, partial curve, poor fit]",
CC(=O)Nc1ccc(C)cc1-c1nc2ccccc2n(Cc2cccc(Br)c2)c1=O,,inactive: 23%
O=C(NCCN1C(=O)S/C(=C\c2ccc(Cl)c(Cl)c2)C1=O)c1cnccn1,,inactive: 15.9%
COC(=O)C1(C(=O)OC)Cc2ccccc2N(S(=O)(=O)c2ccc(C)cc2)C1CC(C)=O (stereo unspecified),"inconclusive: 9.2 µM [cytotoxic, partial curve]",
CCOc1ccccc1N1CC(C(=O)Nc2cc(S(C)(=O)=O)ccc2Cl)CC1=O (stereo unspecified),"inconclusive: 11.6 µM [rising, partial curve, poor fit]",
COc1cccc(-n2ccnc2SCC(=O)Nc2nc3ccc(C)cc3s2)c1,,inactive: 0%
O=C1CCc2cc(S(=O)(=O)N3CCN(Cc4ccc5c(c4)OCO5)CC3)ccc2N1,"inconclusive: 14.6 µM [cytotoxic, partial curve, poor fit]",
O=[N+]([O-])C(/C=C(\Cl)[N+](=O)[O-])=C(N1CCCCC1)N1CCCCC1,,inactive: -17.7%
COc1cccc(/C=N/NC(=O)C(=O)N/N=C/c2cccc(OC)c2OC)c1OC,,inactive: 0%
